These are yes or no findings as the source states them, for the method shown. Binding seen in cells or lysates may run through a third protein. Some entries that bind do so weakly or less than the wild type.
Assays:
[1] = molecular target: Histone demethylase Jumonji D3 (JMJD3), wild-type, FLAG-tagged (p3xFLAG-CMV-JMJD3 wild-type) (UniProt O15054); test: co-IP; GSC 923 cells overexpressing FLAG-JMJD3 or JMJD3 MT; 500-1000 ug lysate, Santa Cruz Exacta-Cruz protocol, western blot for endogenous p53
[2] = molecular target: Histone demethylase Jumonji D3 (JMJD3), wild-type, FLAG-tagged (p3xFLAG-CMV-JMJD3 wild-type) (UniProt O15054); test: co-IP; HEK 293 cells transfected with FLAG-JMJD3 or JMJD3 MT; 500-1000 ug lysate, Santa Cruz Exacta-Cruz protocol, western blot for endogenous p53

Protein sequences, listed by entry. Tags and fused reporters are not part of them.
UniProt O15054: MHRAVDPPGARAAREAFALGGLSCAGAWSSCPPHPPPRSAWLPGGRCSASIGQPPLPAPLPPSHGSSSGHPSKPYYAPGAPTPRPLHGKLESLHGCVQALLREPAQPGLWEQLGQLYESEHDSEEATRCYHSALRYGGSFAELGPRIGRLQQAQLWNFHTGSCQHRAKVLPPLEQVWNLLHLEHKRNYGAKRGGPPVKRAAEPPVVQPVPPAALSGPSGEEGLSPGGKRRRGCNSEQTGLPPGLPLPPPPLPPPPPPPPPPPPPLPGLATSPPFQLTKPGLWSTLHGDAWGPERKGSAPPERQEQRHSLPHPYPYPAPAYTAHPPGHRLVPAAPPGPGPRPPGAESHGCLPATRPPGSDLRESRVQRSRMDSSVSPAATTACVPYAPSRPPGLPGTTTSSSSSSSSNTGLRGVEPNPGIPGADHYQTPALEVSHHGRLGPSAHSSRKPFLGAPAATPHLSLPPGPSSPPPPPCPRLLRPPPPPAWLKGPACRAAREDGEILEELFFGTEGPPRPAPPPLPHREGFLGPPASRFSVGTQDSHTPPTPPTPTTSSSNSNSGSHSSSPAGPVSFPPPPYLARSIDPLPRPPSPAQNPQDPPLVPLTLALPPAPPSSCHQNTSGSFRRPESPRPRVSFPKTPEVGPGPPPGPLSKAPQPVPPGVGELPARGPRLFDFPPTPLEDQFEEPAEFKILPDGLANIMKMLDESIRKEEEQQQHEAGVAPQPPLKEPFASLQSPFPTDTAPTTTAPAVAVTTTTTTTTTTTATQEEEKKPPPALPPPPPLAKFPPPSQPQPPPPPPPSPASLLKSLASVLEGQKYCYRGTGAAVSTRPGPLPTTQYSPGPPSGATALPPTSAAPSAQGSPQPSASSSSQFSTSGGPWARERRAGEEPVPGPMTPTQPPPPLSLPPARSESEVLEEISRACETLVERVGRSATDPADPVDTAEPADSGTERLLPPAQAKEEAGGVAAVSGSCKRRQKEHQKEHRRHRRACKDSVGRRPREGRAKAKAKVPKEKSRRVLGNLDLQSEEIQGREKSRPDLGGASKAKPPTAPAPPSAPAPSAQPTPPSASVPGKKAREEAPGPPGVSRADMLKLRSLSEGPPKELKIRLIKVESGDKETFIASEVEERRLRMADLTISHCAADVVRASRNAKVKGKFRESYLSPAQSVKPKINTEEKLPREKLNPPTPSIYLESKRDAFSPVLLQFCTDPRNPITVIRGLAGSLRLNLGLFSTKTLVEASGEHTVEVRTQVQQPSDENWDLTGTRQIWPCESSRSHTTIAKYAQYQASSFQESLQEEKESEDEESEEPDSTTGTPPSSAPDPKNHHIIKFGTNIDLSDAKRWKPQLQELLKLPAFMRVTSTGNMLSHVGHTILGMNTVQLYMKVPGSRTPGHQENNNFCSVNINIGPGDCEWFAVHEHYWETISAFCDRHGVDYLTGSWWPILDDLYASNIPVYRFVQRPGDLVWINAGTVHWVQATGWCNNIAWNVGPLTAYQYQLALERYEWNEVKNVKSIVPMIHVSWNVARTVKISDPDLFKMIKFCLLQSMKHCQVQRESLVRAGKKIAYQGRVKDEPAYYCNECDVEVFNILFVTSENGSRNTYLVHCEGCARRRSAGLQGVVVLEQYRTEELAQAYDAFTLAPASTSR

- binding [1]: binds
- binding [2]: binds
Substance: p53 protein, endogenous (from UniProt P04637 1-393)
